The supplement of paper PMC4604168 (melanoma cell lines)
Some of the results follow. Repeats are few or missing, and single values can be far off.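 Imaging used 1,536-well plates; nuclei positive for cleaved PARP by antibody were divided by total DNA-stained nuclei to yield the apoptosis fraction. Doses for screening kept most cells viable, and cell lines differ markedly in resting and induced cleaved-PARP levels.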

The compounds below were run on RPMI7951 (assay: cleaved PARP positive nuclei fraction relative to DMSO control; melanoma cells; higher = more apoptosis). Details: library dose: low library concentration; 72 h.
With CCCCCCCCCCCCCCCCCCOP(=O)([O-])OC1CC[N+](C)(C)CC1 [Perifosine] + CC(=O)c1c(C)c2cnc(Nc3ccc(N4CCNCC4)cn3)nc2n(C2CCCC2)c1=O [palbociclib] (first compound 0.4 µM, partner dose 0.04 µM) the “cleaved PARP positive nuclei fraction” value was 89.7%. With Cc1ccc(Nc2nccc(N(C)c3ccc4c(C)n(C)nc4c3)n2)cc1S(N)(=O)=O [Pazopanib] + O=C(O)c1ccc2c(c1)nc(Nc1cccc(Cl)c1)c1ccncc12 [CX4945] (first compound 0.4 µM, partner dose 0.4 µM) the “cleaved PARP positive nuclei fraction” value was 138%. With Cc1cn(-c2cc(NC(=O)c3ccc(C)c(Nc4nccc(-c5cccnc5)n4)c3)cc(C(F)(F)F)c2)cn1 [nilotinib] + C=C(c1ccc(C(=O)O)cc1)c1cc2c(cc1C)C(C)(C)CCC2(C)C [Bexarotene] (first compound 0.2 µM, partner dose 2 µM) the “cleaved PARP positive nuclei fraction” value was 99.5%. For Cc1cc(Nc2cc(N3CCN(C)CC3)nc(Sc3ccc(NC(=O)C4CC4)cc3)n2)n[nH]1 [Tozasertib] + O=C(O)[C@@H]1[O][Sb](=[O])([O][Sb]2(=[O])[O][C@H]([C@H](O)CO)[C@H](O)[C@H](C(=O)O)[O]2)[O][C@H]([C@H](O)CO)[C@@H]1O [stibogluconate] (first compound 0.006 µM, partner dose 2 µM), the “cleaved PARP positive nuclei fraction” value was 59.4%. In the case of O=C(/C=C/c1cccnc1)NCCCCC1CCN(C(=O)c2ccccc2)CC1 + Nc1ccn([C@@H]2O[C@H](CO)[C@@H](O)C2(F)F)c(=O)n1 [gemcitabine] (first compound 0.01 µM, partner dose 0.0004 µM), the “cleaved PARP positive nuclei fraction” value was 120%. With O=C(/C=C/c1cccnc1)NCCCCC1CCN(C(=O)c2ccccc2)CC1 + O=C(O)c1ccc2c(c1)nc(Nc1cccc(Cl)c1)c1ccncc12 [CX4945] (first compound 0.01 µM, partner dose 0.4 µM) the “cleaved PARP positive nuclei fraction” value was 95.4%. In the case of O=C(/C=C/c1cccnc1)NCCCCC1CCN(C(=O)c2ccccc2)CC1 + Cc1ccc(Nc2nccc(N(C)c3ccc4c(C)n(C)nc4c3)n2)cc1S(N)(=O)=O [Pazopanib] (first compound 0.01 µM, partner dose 0.4 µM), the “cleaved PARP positive nuclei fraction” value was 139%. Cc1cc(Nc2cc(N3CCN(C)CC3)nc(Sc3ccc(NC(=O)C4CC4)cc3)n2)n[nH]1 [Tozasertib] + CC(C)C[C@H](NC(=O)[C@H](Cc1ccccc1)NC(=O)c1cnccn1)B(O)O [Bortezomib] (first compound 0.006 µM, partner dose 0.001 µM) was tested, and the “cleaved PARP positive nuclei fraction” value was 153%. For Cc1ccc(Nc2nccc(N(C)c3ccc4c(C)n(C)nc4c3)n2)cc1S(N)(=O)=O [Pazopanib] + Cn1c(=O)n(-c2ccc(C(C)(C)C#N)cc2)c2c3cc(-c4cnc5ccccc5c4)ccc3ncc21 [NVP-BEZ235] (first compound 0.4 µM, partner dose 0.004 µM), the “cleaved PARP positive nuclei fraction” value was 202%. For Cc1cc(Nc2cc(N3CCN(C)CC3)nc(Sc3ccc(NC(=O)C4CC4)cc3)n2)n[nH]1 [Tozasertib] + CS(=O)(=O)CCNCc1ccc(-c2ccc3ncnc(Nc4ccc(OCc5cccc(F)c5)c(Cl)c4)c3c2)o1 [lapatinib] (first compound 0.006 µM, partner dose 0.8 µM), the “cleaved PARP positive nuclei fraction” value was 63.3%. Cc1ccc(Nc2nccc(N(C)c3ccc4c(C)n(C)nc4c3)n2)cc1S(N)(=O)=O [Pazopanib] + Nc1nc(F)nc2c1ncn2[C@@H]1O[C@H](CO)[C@@H](O)[C@@H]1O [fludarabine] (first compound 0.4 µM, partner dose 0.2 µM) was tested, and the “cleaved PARP positive nuclei fraction” value was 44.7%. N#CC[C@H](C1CCCC1)n1cc(-c2ncnc3[nH]ccc23)cn1 [ruxolitinib] + CC(=O)c1c(C)c2cnc(Nc3ccc(N4CCNCC4)cn3)nc2n(C2CCCC2)c1=O [palbociclib] (first compound 1 µM, partner dose 0.04 µM) was tested, and the “cleaved PARP positive nuclei fraction” value was 61.5%. With O=C(Nc1cc(C(F)(F)F)cc(C(F)(F)F)c1)c1cc(Cl)ccc1O + Nc1nc(F)nc2c1ncn2[C@@H]1O[C@H](CO)[C@@H](O)[C@@H]1O [fludarabine] (first compound 0.016 µM, partner dose 0.2 µM) the “cleaved PARP positive nuclei fraction” value was 110%. In the case of O=C(Nc1cc(C(F)(F)F)cc(C(F)(F)F)c1)c1cc(Cl)ccc1O + O=C(/C=C/c1cccnc1)NCCCCC1CCN(C(=O)c2ccccc2)CC1 [FK866] (first compound 0.016 µM, partner dose 0.01 µM), the “cleaved PARP positive nuclei fraction” value was 50.4%.
